Library screen at single concentrations

From ChEMBL document CHEMBL3988442, “University of Dundee, Small-Polar-MMV Screening Library” (2021).

Mtb glucose medium: 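Growth of Mycobacterium tuberculosis over 3 days (7H9 medium with glucose and tyloxapol); the read-out is not stated. Tested at 50 µM. Direction is inferred from retests: higher values go with more growth inhibition. Of about 69,000 compounds tested this way, about 760 (1.1%) reached 50% or more in at least one test.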
Mtb cholesterol medium: 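Whole-cell growth test on Mycobacterium tuberculosis, read after 4 days in a medium based on cholesterol and the lipid DPPC; the read-out is not stated. Compounds at 50 µM. The record gives no direction; compounds that gave an IC50 in retests scored well above the rest, so higher reads as more growth inhibition. About 69,000 compounds were tested under these conditions; 0.54% (about 370) showed 50% or more at least once.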

Results are given as percent effect. How 0% and 100% were set is not recorded. Most values in the screen are low, and negative values occur. The compounds are a random part of those screened. Two or more numbers in one place are separate tests of the same structure; such repeats can differ widely.

| structure | Mtb glucose medium | Mtb cholesterol medium |
|---|---|---|
| `CC(C)(CO)Nc1ccc(-c2nc(-c3ccccc3F)no2)cn1` | 12.95 and 16.84 | 10.01 and 10.74 |
| `O=C(CN1CCCC(c2ncc[nH]2)C1)NCCCN1CCCCCC1=O` (stereo not given) | 12.49 and 2.952 | -9.71 |
| `CC(C)(C)C(=O)N1CCCC1c1ccc(C(=O)N2CCOCC2)s1` (stereo not given) | 1.208 and -36.99 | -28.32 and -7.11 |
| `O=C(O)C(F)(F)F.[H][C@@]12CCN(Cc3ccc4c(c3)OCO4)C[C@]1([H])O[C@@H](C(=O)NC1CC1)C2` | 28.25 | -1.459 |
| `CCCc1nn(C2CCCN(C(C)C)C2=O)c(=O)o1` (stereo not given) | 5.675 | 15.73 |
| `O=C(COc1ccc(Cl)cc1)N1CCN(c2cnccn2)CC1` | 35.88 | 16.2 |
| `Cc1ccc(CN2CCN(C3CCC3)CC2CCO)o1` (stereo not given) | -6.129 | -4.785 |
| `Clc1cncc(N2CCCC2c2nnc3n2CCCCC3)n1` (stereo not given) | -1.389 | 12.22 |
| `COCCCC1CCCCN1Cc1cc(F)ccc1-n1cccn1` (stereo not given) | -21.92 | -3.816 |
| `Cc1ccc(-n2ccc3nc(N4CCCC4)ncc3c2=O)cc1C` | 1.214 | -18.72 and -17.6 |
| `Cn1cc(C(=O)NCCCN2CCCCCC2=O)c(-c2cccnc2)n1` | -9.582 and 10.76 | -7.283 |
| `COc1c(C2CCCN2C(=O)c2csc(C(C)C)n2)c(C)nn1C` (stereo not given) | 0.5288 | -0.4445 |
| `O=c1cc(-c2cccnc2)nc(-c2ccc(CN3CC[C@H](O)C3)cc2)[nH]1` | -1.325 | -34.76 and 6.913 |
| `CC(C)CCN1CCCC(Cn2cc(CCO)nn2)C1` (stereo not given) | -0.1569 | -9.702 |
| `CC(NC(=O)CCn1cncn1)c1nnc2n1CCCCC2` (stereo not given) | 19.6 | -8.075 |
| `Cc1ccc(CN2CCC3(CC2)CC(NC(=O)c2ccccn2)CO3)o1` (stereo not given) | -4.116 and 1.814 | -4.268 and -15.7 |
| `[H][C@]12CC[C@]([H])(CN(Cc3nnc(C4CC4)o3)C1)N(CCOC)C2=O` | -24.02 | -23.26 |
| `c1coc(-c2nnc(CN3CCCC3Cn3cncn3)o2)c1` (stereo not given) | 18.8 | -3.406 |
| `c1cnc(N2CCC(NCc3cnc(C4CCC4)s3)CC2)nc1` | 4.099 and 8.65 | 6.724 |
| `[H][C@@]12CCCCN(C)[C@]1([H])[C@@H](c1ccccc1)CCN2S(=O)(=O)N(CC)CC` | -20.45 | 5.19 |
| `CCC(CCNCc1cnc(C2CCC2)s1)N1CCCC1=O` (stereo not given) | -30.69 | -4.964 and -35.54 |
| `Cc1ccc(CN(CCN(C)C)C(=O)Cc2cn3ccccc3n2)o1` | -14.46 | -16.44 |
| `COC1CN(C(=O)Nc2ccccc2)CCC(=O)N(C)c2ccccc21` (stereo not given) | 0.4185 | -15.18 |
| `CNc1ncc(CN(C)Cc2cc(O)c3cc(C)cc(C)c3n2)cn1` | -4.983 | -0.2083 |
| `COCCN1CC(=O)c2sc(NCc3ccccc3)nc2C1` | -7.781 | -16.96 |
| `Cc1cc2nc(C(=O)NCc3cccnc3N(C)C)cc(C)n2n1` | -2.497 | 2.777 |
| `Cc1nc(C)c(CC(=O)N2CCCN(CC3CC3)C(C(C)C)C2)c(=O)[nH]1` (stereo not given) | 3.449 | -8.863 |
| `CNc1cc(-c2cc(OC)c(OC)c(OC)c2)ncn1` | 30.96 | -0.6529 |
| `O=C(NCC1CCS(=O)(=O)C1)c1cccc(CN2CCCC2)c1` (stereo not given) | 15.26 | -4.294 |
| `Cc1nccc(C2CN(C(=O)c3cncnc3)C2)n1` | 0.8412 | -9.49 |
| `CCC(O)CN(CC(=O)NC(=O)NC1CC1)c1ccccc1` (stereo not given) | 18.52 | 14.61 |
| `O=C(O)C(F)(F)F.O=C(O)C(F)(F)F.[H][C@@]12CCN(C(=O)c3cnn(C)c3)[C@@]1([H])CCN2Cc1cccnc1` | -23.03 | -12.8 |
| `CCCc1nc(CN2CCCC(Cn3cncn3)C2)no1` (stereo not given) | 7.239 | -6.03 |
| `CNC(=O)CN1CCCC12CCN(C(=O)c1ccc(F)cc1)CC2.O=C(O)C(F)(F)F` | 2.394 | 10.17 |
| `O=S(=O)(c1ccccc1F)N1CCCCC1c1cc[nH]n1` (stereo not given) | 25.67 | -17.53 |
| `CCOC(=O)COc1cccc(NC(=O)C2COCCO2)c1` (stereo not given) | 7.087 | -12.48 |
| `COc1cc(CC(O)CO)c(OC)c2c1OCO2` (stereo not given) | -17.79 | -20.36 |
| `OC1(CN2CCC(Oc3cccnc3)CC2)CNCCOC1` (stereo not given) | -28.21 | -3.371 |
| `Cc1noc(C(C)C)c1C(=O)N1CCC(n2cccn2)CC1` | -30.74 | -25.89 |
| `Cc1nc(CNc2ncc(Br)cn2)n[nH]1` | -4.123 | -15.17 |
| `CCS(=O)(=O)c1ccc(N2CCC(NC(=O)CCC(C)C)CC2)cc1` | 11.8 | 5.391 |
| `COCC1CN(c2ccc(C)nn2)Cc2cnn(C)c21.O=C(O)C(F)(F)F.O=C(O)C(F)(F)F` (stereo not given) | 16.21 | -4.708 |
| `Cc1nc[nH]c1-c1nccn1-c1ccc(C(N)=O)c(N2CCCC2)c1` | -11.82 | -17.39 |
| `CCc1nccn1C1CCCN(C(=O)COCC(F)(F)F)C1` (stereo not given) | 18.26 | 0.5643 |
| `Cc1c(C)n(Cc2ccccn2)c2nc3c(c(N)c12)CCCC3` | 4.815 | -2.21 |
| `Cn1ccnc1CN1CCN(Cc2ccc(C#N)cc2F)CC1` | -41.91 | -10.59 |
| `CN(Cc1nncn1C)c1nccc(C2CCCC2)n1` | 1.896 and -7.418 | -16.92 |
| `Cn1cnnc1S(=O)(=O)Cc1cc(Cl)c2c(c1)OCO2` | -56.54 | -34.27 |
| `[H][C@]12CCN(C(=O)c3ccncc3F)[C@@]1([H])CC[C@@H](COCC)O2` | 9.767 | 5.566 |
| `O=S(=O)(NCCCN1CC=CC1)c1cncc(Cl)c1` | 12.31 | 1.294 |
| `CCn1ccnc1CN1CCN(CC(O)c2cccc(F)c2)CC1` (stereo not given) | 5.644 | -5.332 |
| `CC(C)c1nccn1C1CCCN(C(=O)c2ccc3c(c2)COC3)C1` (stereo not given) | -5.687 | 9.128 |
| `[H][C@@]12COC[C@]1(c1nc(C)no1)CN(S(C)(=O)=O)C2` | -7.051 and 10.73 | 8.502 |
| `CSCCC(Nc1nc(C)cc(C)n1)C(=O)NCC1CCOCC1` (stereo not given) | 6.905 | -0.4545 |
| `Cc1csc(N2CCN(C(=O)Cc3ccc(C)s3)CC2)n1` | -22.23 | -6.318 |
| `CCN1CCN(C(=O)c2cc(NC(=O)c3ccccc3)n(C)n2)CC1` | 13.22 | -3.207 |
| `O=C(O)c1cc(S(=O)(=O)Nc2cc(F)cc(F)c2)cc2c1OCCO2` | 7.203 | -3.134 |
| `COc1c(C2CCCN2C(=O)c2ccc(C#N)cc2)c(C)nn1C` (stereo not given) | 8.074 | -2.947 |
| `Cc1cc(C2CCCN(CCNS(=O)(=O)c3ccccc3)C2)n[nH]1` (stereo not given) | 4.515 and 12.31 | -21.19 |
| `Cc1cc(C)n(C2CN(c3ncnc4[nH]ccc34)C2)n1` | 16.34 | 17.45 |
| `O=C(C1CCOCC1)N1CCN(CC2CC2)c2ncccc2C1` | 1.769 | -6.787 and -8.037 |
| `Cc1cccc(Cn2cc(C)c(N)n2)c1` | -11.24 | -15.86 |
| `CN1CCC(N2CCOC[C@H]2c2nc(C(C)(C)C)c[nH]2)CC1` | -9.125 and 0.4998 | -6.742 |
| `COc1cc(C)nc(N2CCN(C(=O)c3ccccc3C)CC2)n1` | 9.057 | -13.66 |
| `CNC(=O)NC(=O)C(C)N1CCC(c2c[nH]c3ccc(OC)cc23)CC1` (stereo not given) | -24.58 | -17.74 |
| `Cc1ccc(F)cc1S(=O)(=O)NCc1cccc(C(=O)N2CCCC2)c1` | -7.187 | -6.814 |
| `CC(CNCc1ccc(F)cc1)Oc1ccccn1.Cl` (stereo not given) | 6.465 | 7.346 |
| `CCO[C@H]1CO[C@@]2(CCCN(C(=O)c3ccc(OC)c(F)c3)C2)C1` | -7.083 and -11.43 | -7.674 and -6.7 |
| `CCOc1ccc(C(=O)CCC(=O)NCc2csc(N)n2)cc1C` | -14.7 and 0.7302 | 5.18 |
| `O=C(O)C(F)(F)F.O=C(O)C(F)(F)F.c1csc(CN2CCC3(CC2)CCN(CC2CC2)CC3)n1` | -29.13 and -13.41 | 11.19 |

The first 4 entries again:

structure,Mtb glucose medium,Mtb cholesterol medium
CC(C)(CO)Nc1ccc(-c2nc(-c3ccccc3F)no2)cn1,12.95 and 16.84,10.01 and 10.74
O=C(CN1CCCC(c2ncc[nH]2)C1)NCCCN1CCCCCC1=O (stereo not given),12.49 and 2.952,-9.71
CC(C)(C)C(=O)N1CCCC1c1ccc(C(=O)N2CCOCC2)s1 (stereo not given),1.208 and -36.99,-28.32 and -7.11
O=C(O)C(F)(F)F.[H][C@@]12CCN(Cc3ccc4c(c3)OCO4)C[C@]1([H])O[C@@H](C(=O)NC1CC1)C2,28.25,-1.459